# Laboratory results taken from PubChem BioAssay AID1439 (NMMLSC, 2008).
# Amino acid sequences for entries named in this document (tags omitted).
# UniProt P09471, whole entry, looked up: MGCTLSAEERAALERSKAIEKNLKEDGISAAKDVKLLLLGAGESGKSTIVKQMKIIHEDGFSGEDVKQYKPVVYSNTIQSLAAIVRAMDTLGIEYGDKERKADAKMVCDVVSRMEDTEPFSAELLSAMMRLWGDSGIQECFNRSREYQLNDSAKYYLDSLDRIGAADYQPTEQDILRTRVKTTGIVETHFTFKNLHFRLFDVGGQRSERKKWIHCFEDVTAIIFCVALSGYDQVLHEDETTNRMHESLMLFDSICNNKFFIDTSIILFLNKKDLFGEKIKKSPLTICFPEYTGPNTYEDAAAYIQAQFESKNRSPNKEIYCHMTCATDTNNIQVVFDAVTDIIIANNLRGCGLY
# The whole screen tested about 220,000 compounds, of which about 770 (0.35%) were called active. The inconclusive results got no clear call from the source; some entries with a clear call stand among them for comparison. No stated cut-off is given here; in the data, active means binding response below about 49% or above about 150%; inconclusive means no clear call, values can overlap the other calls; inactive means in between.
# Biological target: Guanine nucleotide-binding protein G(o) subunit alpha (Homo sapiens) (UniProt P09471)
# Test: RGS7-Galphao binding modulators, primary screen, biochemical, multiplexed bead flow cytometry (AID 1439);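 further: fluorescent Galphao held in activated GDP-AlF4 state binding bead-coupled RGS7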
# Settings: at 10 µM, actives lie on both sides
row,SMILES,binding response (% of control)
1,Nc1nccc(-c2ccc(-n3cnc4ccccc43)cc2)n1,inconclusive: 95.4%
2,COc1cc(/C=C2\SC(=Nc3cccnc3)NC2=O)cc(OC)c1OC,inconclusive: 25.1%
3,OC(CNCc1ccccc1C(F)(F)F)C(F)(F)F (stereo unspecified),inactive: 117%
4,Cc1ccc2nc(Nc3nc(C)cc(-c4ccccc4)n3)[nH]c(=O)c2c1,inconclusive: 93.5%
5,CC1CCN(c2c(NCc3ccc(C(=O)NCc4ccccc4)cc3)c(=O)c2=O)CC1,inconclusive: 143%
6,CC1(c2nnc(-c3ccc(Cl)cc3)o2)CC(c2ccc([N+](=O)[O-])cc2)=NO1 (stereo unspecified),inconclusive: 86%
7,CCc1ccc(C(=O)NNc2ccccc2F)cc1,inconclusive: 66.7%
8,CC(=O)Nc1ccc(-c2csc(N/N=C(/C)c3ccccc3)n2)cc1,inconclusive: 88.1%
9,CCC(C)Nc1nc(N)c([N+](=O)[O-])c(NCCO)n1 (stereo unspecified),inconclusive: 52.5%
10,CC(=O)c1ccc(S(=O)(=O)N2Cc3ccccc3CC2C(=O)O)cc1 (stereo unspecified),inconclusive: 44.4%
11,CCOC(=O)c1c(N/N=C/c2cccnc2)n[nH]c1C,inconclusive: 105%
12,Cc1cc(-c2ccccc2)nc(SCC(=O)N2CCCC2)n1,inconclusive: 80.4%
13,Cc1[nH][nH]c(=O)c1C(c1ccc(-c2cccc(Cl)c2)o1)c1c(C)[nH][nH]c1=O,inconclusive: 60.9%
14,O=C(Nc1ccc(Cl)c(Cl)c1)Nc1ccc([N+](=O)[O-])cn1,inconclusive: 250%
15,COc1ccc(CC(=O)NC(c2ccccc2)c2ccccc2)cc1S(=O)(=O)N1CCOCC1,inactive: 99.8%
16,O=C(CCCOc1ccc(Cl)cc1Cl)NCCCn1ccnc1,inconclusive: 103%
17,CC(=O)c1cccc(NC(=O)Cn2nc(-c3ccccc3Cl)ccc2=O)c1,inconclusive: 113%
18,Cn1c(=O)cc(Nc2ccccc2)c2c(=O)n(-c3ccccc3)c(=O)n(-c3ccccc3)c21,inconclusive: 5.29%
19,O=C(CSCc1ccc(Cl)cc1)N/N=C/c1ccco1,inactive: 99.2%
20,COc1ccc(C2CN=NC23CCc2ccccc2C3=O)cc1 (stereo unspecified),inconclusive: 106%
21,CSc1nc(C)c(C(=O)C[n+]2ccccc2C)cc1C#N,inconclusive: 248%
22,Cc1ccccc1CN(CC1CCC(C(=O)O)CC1)C(=S)Nc1ccccc1F (stereo unspecified),inactive: 94.1%
23,COc1ccc(O)c(C(=O)c2coc(=N)c(C(=O)Nc3ccc(SC(F)F)cc3)c2)c1,inactive: 99.1%

# Random excerpt: 3 compounds from above, in no set order.
row,SMILES,binding response (% of control)
13,Cc1[nH][nH]c(=O)c1C(c1ccc(-c2cccc(Cl)c2)o1)c1c(C)[nH][nH]c1=O,inconclusive: 60.9%
1,Nc1nccc(-c2ccc(-n3cnc4ccccc43)cc2)n1,inconclusive: 95.4%
21,CSc1nc(C)c(C(=O)C[n+]2ccccc2C)cc1C#N,inconclusive: 248%

# Later entries.

row,SMILES,binding response (% of control)
1,COc1ccccc1Nc1nc(NCCC(C)C)nc(N)c1[N+](=O)[O-],inconclusive: 213%
2,Cc1ccc(-n2c(SCc3ccc(C(=O)O)cc3)nnc2-c2ccncc2)cc1,inconclusive: 41%
3,O=C(CN1C(=O)CCC1=O)NC(=O)NC1CCCC1,inconclusive: 50.6%
4,Cc1c(C)n(O)c2ccc3nonc3c12,inconclusive: 83.4%
5,COCCNC(=O)C1(C)Oc2ccccc2NC1=O (stereo unspecified),inactive: 98.5%
6,COc1ccc(S(=O)(=O)N(C)C)cc1NC(C)C(=O)Nc1cccc(C#N)c1 (stereo unspecified),inactive: 101%
7,COC(=O)[C@@H]1CC[C@H](C)[C@@H](c2ccc(C)cc2)N1C(=O)c1ccc(/C=N/O[C@@H](C)c2cn([C@H](CO)Cc3ccccc3)nn2)cc1,inactive: 100%
8,Cc1nc(/N=C(\N)N(C)C)[nH]c(=O)c1C,inconclusive: 111%
9,S=c1[nH]nc(-c2ccc3ccccc3n2)n1-c1ccc2ncccc2c1,inactive: 96.7%
10,C/C(=N\NC(=O)c1cnccn1)c1ccc([N+](=O)[O-])cc1,inconclusive: 118%
11,O=C1C2CCCN2C(c2ccc(Br)cc2)N1c1ccc(F)cc1 (stereo unspecified),inactive: 96.2%
12,Cc1ccc(Cn2ccc(=O)c(OCc3c(Cl)cccc3Cl)c2C)cc1,inactive: 98.5%
13,CC(=O)c1ccc(NS(=O)(=O)c2ccccc2)cc1,inactive: 122%
14,CNc1ccccc1C(=O)OC,inconclusive: 121%
15,COc1ccc(-n2ccnc2SCC(=O)NCc2ccco2)c(OC)c1,inactive: 78.3%
16,C#CCn1c(=NC(=O)CN2C(=O)CCC2=O)sc2cccc(OC)c21,inconclusive: 213%
17,CSCCC(N=Cc1c(O)n(-c2ccc(F)cc2)c(=O)[nH]c1=O)C(=O)O (stereo unspecified),inactive: 101%
18,COc1ccc(OCC#CCn2ccnc2)cc1,inconclusive: 124%
19,O=C(NCCc1ccc(F)cc1)c1cc(-c2ccncc2)nc2ccccc12,inconclusive: 51.6%
20,O=C(COC(=O)C1CCN(S(=O)(=O)c2cccs2)CC1)c1ccccc1,inconclusive: 93.7%
21,CSc1sc(C(=O)NNC(=O)c2ccc(Cl)cc2)c2c1C=CCC2,inconclusive: 515%
22,CN1CCN(c2ccc(CNC(=O)c3ccc4c(c3)OCCO4)cc2)CC1,inconclusive: 103%
23,O=C(CNC(=O)c1ccccc1Cl)OCC(=O)N1CCc2ccccc21,inconclusive: 105%

row,SMILES,binding response (% of control)
1,N#Cc1cc([N+](=O)[O-])cnc1Nc1ccccc1,inactive: 96.5%
2,Cc1c(NC(=O)C(c2ccccc2)c2ccccc2)cccc1C(=O)O,inconclusive: 105%
3,Cc1ccc(C)c(SCC(=O)Nc2cccnc2Cl)c1,inactive: 105%
4,C(=N\Nc1nc2ccccc2[nH]1)/c1ccc2ncccc2c1,inconclusive: 96.3%
5,CCOC(=O)CN(C(=O)COc1nc(-c2ccccc2)cc(C)c1C#N)c1cccc(OC)c1,inconclusive: 123%
6,Oc1ccc(N2CCN(c3nc(-c4cccs4)nc4ccccc34)CC2)cc1,inconclusive: 79.8%
7,CCC(=O)Nc1nnc(-c2cccs2)s1,inconclusive: 102%
8,COc1ccc(C2C(C(=O)O)c3ccccc3C(=O)N2Cc2ccco2)cc1 (stereo unspecified),inconclusive: 60.2%
9,O=C1CCCc2c1nc(-c1ccccc1F)n2O,inconclusive: 114%
10,COc1cc2nc(CN3CCOCC3)n(CC(=O)NCC(F)(F)F)c(=O)c2cc1OC,inconclusive: 116%
11,O=C(CCc1ccccc1)NNC(=O)c1ccc(NC(=O)c2ccccc2)cc1,inactive: 85.1%
12,COc1cccc(Cn2c(=O)c3[nH]cnc3n(-c3ccccc3C)c2=O)c1,inconclusive: 103%
13,O=C(NCC(=O)N1CCN(S(=O)(=O)/C=C/c2ccccc2)CC1)c1ccc(Cl)cc1,inconclusive: 112%
14,CCOC(=O)C1C(=O)OC(C)(C)C1C(CC)C(=O)c1c(C)cc(C)cc1C (stereo unspecified),inconclusive: -3.22%
15,COc1cc(C#N)c(NC(=O)CN2CCC(C(N)=O)CC2)cc1OC,inactive: 98.6%
16,COC(=O)c1ccc(C2NC(=O)c3c(sc(C)c3C)N2)cc1 (stereo unspecified),inconclusive: 56.1%
17,CC1(C)C(=O)OC(c2cccc([N+](=O)[O-])c2)C2(CCCCC2)C1=O (stereo unspecified),inconclusive: 86.9%
18,CCOC(=O)c1sc(=S)n(C)c1NC(=O)c1ccc(C(C)(C)C)cc1,inconclusive: 99.9%
19,CCOC(=O)C(Oc1ccc2c(-c3ccccc3)cc(=O)oc2c1)c1ccccc1 (stereo unspecified),inactive: 98.8%
20,CC(C)CC(CC(C)C)=NNC(=O)c1ccc(CSc2nncn2C)cc1,inactive: 99.5%
21,S=c1[nH]nc(-c2ccco2)n1/N=C/c1c(Cl)cccc1Cl,inconclusive: 108%
22,O=C1Nc2ccccc2N=C(c2ccccc2)c2ccccc21,inconclusive: 93.4%
23,Cc1cc(C)c2c3c(sc2n1)C(=O)N(c1ccccc1C)CC(=O)N3,inconclusive: 84.5%

# In another format: entries from further up
row	SMILES	binding response (% of control)
3	Cc1ccc(C)c(SCC(=O)Nc2cccnc2Cl)c1	inactive: 105%
4	C(=N\Nc1nc2ccccc2[nH]1)/c1ccc2ncccc2c1	inconclusive: 96.3%
5	CCOC(=O)CN(C(=O)COc1nc(-c2ccccc2)cc(C)c1C#N)c1cccc(OC)c1	inconclusive: 123%
6	Oc1ccc(N2CCN(c3nc(-c4cccs4)nc4ccccc34)CC2)cc1	inconclusive: 79.8%

# Further compounds

row,SMILES,binding response (% of control)
1,Cc1nc(C(=O)NNC(=O)c2cccc(Cl)c2)c(C(F)(F)F)o1,inconclusive: 129%
2,NC(=O)c1ccsc1NC(=O)CSc1nnc(Nc2ccccc2)s1,inactive: 94.6%
3,CCCCOC(=O)CSc1n[nH]c(=O)[nH]c1=O,inactive: 103%
4,Cc1ccc(C(=O)CN2C(=O)c3ccccc3S2(=O)=O)cc1,inconclusive: 115%
5,Cc1cc2cc(C#N)c(N3CCN(S(C)(=O)=O)CC3)nc2cc1C,inactive: 101%
6,CCCn1c(SCC(=O)Nc2cc(Cl)ccc2Cl)n[nH]c1=O,inconclusive: 123%
7,CCNC(=O)COC(=O)CCNC(=O)c1ccc(Cl)cc1,inconclusive: -217%
8,CCOC(=O)N1CCC(NC(=O)C2=CCN(S(=O)(=O)c3ccccc3)CC2)CC1,inconclusive: 134%
9,CC(C)(C)NC(=O)COC(=O)CCC(=O)c1cccs1,inconclusive: 85.4%
10,CN(C)C(=O)c1nc2ccc(Cl)cn2c1CNCc1cccc(OC(F)(F)F)c1,inconclusive: 108%
11,CC1Cc2ccccc2N1C(=O)COC(=O)c1ccc(O)cc1 (stereo unspecified),inconclusive: 130%
12,Cn1c(=O)c2c(nc(OCC3COC(C)(C)O3)n2Cc2ccccc2F)n(C)c1=O (stereo unspecified),active: 164% [activator]
13,CN(C)C(CNC(=O)/C=C/c1cccc(Cl)c1)c1ccccc1 (stereo unspecified),inconclusive: 104%
14,CC(C)CC(=O)Nc1nnc(CSCc2ccc(F)cc2)s1,inconclusive: 237%
15,CCN1CCN(CCc2nc3cc([N+](=O)[O-])ccc3n2C)CC1,inconclusive: 102%
16,COc1ccc(C(CC(=O)N2CCOCC2)c2c(O)cc(OC)cc2OC)cc1 (stereo unspecified),inconclusive: 119%
17,C/C(=N\Nc1ccc(F)cc1F)c1ccccc1O,inconclusive: 89.2%
18,N#Cc1c(NC(=O)C2CCCO2)sc2c1CCCCCC2 (stereo unspecified),inactive: 101%
19,Clc1ccc(-c2cc(-c3ccccn3)on2)c(Cl)c1,inconclusive: 156%
20,Cn1c(=O)c2c(nc(CN3CCN(c4ccc(F)cc4)CC3)n2CCN2CCOCC2)n(C)c1=O,inconclusive: 99.1%
21,Cc1c(S(=O)(=O)c2ccccn2)c(N)n(Cc2ccccc2)c1C,inconclusive: 104%
22,CC(C)(C)C(=O)Nc1cc(S(=O)(=O)N2CCCCC2)ccc1N1CCCCC1,inactive: 97%
